In PubChem BioAssay AID504834 (National Center for Advancing Translational Sciences (NCATS), 2011):
Screen size: about 320,000 compounds; about 22,000 (6.9%) were called active. Inconclusive results, whose numbers are uncertain, are shown with a selection of clear calls. The call rests on the fitted dose curve; in most records, active means well fitted inhibition curve with a large enough effect; inconclusive means small, poorly fitted or top-dose-only effect, or another doubt; inactive means no such curve, though single readings can be large or run the other way. Potencies of inconclusive entries are doubtful fits and often do not repeat.

Assay: Primary qHTS for delayed death inhibitors of the malarial parasite plastid, 96 hour incubation
Settings: P. falciparum luciferase reporter growth; series mostly up to 28.7 µM
Outline: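 Infected RBCs, 2% Hct / 0.05% parasitemia final; luciferase-reporter P. falciparum; cpd 96 h, 37 C, 5% CO2; luciferase detection reagent; luminescence.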
Potency means the concentration at half of the fitted maximal effect.

Row | SMILES | Potency
1 | CC(C)(C)NC(=O)CSc1nc2ccc(Nc3nc(N4CCOCC4)nc(N4CCOCC4)n3)cc2s1 | inconclusive: 4.65 µM [inhibitor, partial curve]
2 | N#Cc1c(NC(=O)c2cc(C3CC3)on2)sc2c1CCC2 | inactive
3 | O=C(CCC(=O)c1ccccc1)NCCc1c[nH]c2ccccc12 | inactive
4 | Cc1nc(-c2nc(C(=O)NNS(C)(=O)=O)cs2)cs1 | inconclusive: 0.0033 µM [inhibitor, full curve, poor fit]
5 | Cc1ccc(-c2cc3c(nn2)-c2ccccc2C3=O)cc1 | active: 0.37 µM
6 | CC1CC(=O)c2cn3c(nc2C1)nc1ccccc13 (stereo unspecified) | inconclusive: 7.38 µM [inhibitor, partial curve]
7 | CCOC(=O)c1cc2n(c1N)-c1ccccc1C2=O | inactive
8 | Cc1ccc(NC(=O)CNc2ccccc2CN(C)C2CCCCC2)cc1 | inconclusive: 18.5 µM [inhibitor, single point]
9 | CCCCOC(=O)n1ccc(C(=O)Nc2ccccc2OC)n1 | inconclusive: 0.586 µM [inhibitor, full curve, poor fit]
10 | CCOc1ccc2nc(Cl)c(C3CC(c4ccco4)=NN3S(=O)(=O)c3ccccc3)cc2c1 (stereo unspecified) | active: 7.38 µM
11 | O=C(/C=C/c1ccco1)NCc1ccc(F)cc1 | inconclusive: 18.5 µM [inhibitor, single point]
12 | CC(=O)Nc1ccc(N2C(=O)c3ccc(C(=O)Nc4nnc(SCc5ccc(F)cc5)s4)cc3C2=O)cc1 | inactive
13 | O=C(CSc1nnc(-c2ccc(Cl)cc2)n1-c1ccc(Cl)cc1)N/N=C/c1ccco1 | inconclusive: 10.4 µM [inhibitor, partial curve, poor fit]
14 | Nc1cc(N)nc(SCc2ccc(Cl)cc2)n1 | inactive
15 | CC/C(C)=N/Nc1nc2sc3c(c2c(=O)[nH]1)CC(C)(C)OC3 | inconclusive: 18.5 µM [inhibitor, single point]
16 | CCCc1cc(=O)[nH]c(SCC(=O)N2CCCC2=O)n1 | inactive
17 | CN(C=[N+](C)C)c1cccc2c1C(=O)c1ccccc1C2=O | inactive
18 | Cc1ccc(-c2c3c(=O)n(C)c(=O)n(C)c3cn2Cc2ccccc2)cc1 | inconclusive: 14.7 µM [inhibitor, partial curve, poor fit]
19 | COCCn1c(=O)[nH]c2cc(C(=O)Nc3cc(OC)c(OC)c(OC)c3)ccc2c1=O | active: 5.22 µM
20 | CCOC(=O)CSc1nnc(-c2cccnc2)n1C | inconclusive: 9.28 µM [inhibitor, partial curve, poor fit]
21 | O=C(/C=C/c1ccc(F)cc1)N1CCCN(C(=O)/C=C/c2ccc(F)cc2)CC1 | inactive
22 | O=C(Nc1ccc2c(c1)OCCO2)c1cccnc1 | inconclusive: 14.7 µM [inhibitor, partial curve, poor fit]
23 | Cc1ccc(NC(=O)c2ccc3ccccc3n2)nc1 | inactive
24 | CCN(CC)C(=O)CSc1nc2cc3c(cc2c(=O)n1Cc1ccco1)OCO3 | inactive

Entries listed so far that contain an NH in an aromatic ring:
Row | SMILES | Potency
3 | O=C(CCC(=O)c1ccccc1)NCCc1c[nH]c2ccccc12 | inactive
15 | CC/C(C)=N/Nc1nc2sc3c(c2c(=O)[nH]1)CC(C)(C)OC3 | inconclusive: 18.5 µM [inhibitor, single point]
16 | CCCc1cc(=O)[nH]c(SCC(=O)N2CCCC2=O)n1 | inactive
19 | COCCn1c(=O)[nH]c2cc(C(=O)Nc3cc(OC)c(OC)c(OC)c3)ccc2c1=O | active: 5.22 µM

The listing continues:

Row | SMILES | Potency
25 | COc1cc(NC(=O)Nc2ccccc2OC)c(OC)cc1NC(=O)CN1CCCCC1 | inactive
26 | O=C(CN1C(=O)C2CCCCC2C1=O)N1CCN(c2ccc(F)cc2)CC1 (stereo unspecified) | inconclusive: 0.0738 µM [inhibitor, full curve, poor fit]
27 | N=c1c(C(=O)NC2CCCC2)cc2c(=O)n3ccccc3nc2n1CCN1CCOCC1 | inconclusive: 2.62 µM [inhibitor, full curve, poor fit]
28 | CC(C)(C)c1csc(CS(=O)(=O)c2ccccn2)n1 | inactive
29 | C=CCn1c(SCC(=O)Nc2ccccc2OC)nnc1-c1ccccn1 | inconclusive: 18.5 µM [inhibitor, single point]
30 | Cc1ccc(Oc2ccc(/C=N/O)cn2)cc1 | inactive
31 | CS(=O)(=O)N(CC(=O)N1CCCC1)Cc1ccc(Cl)c(Cl)c1 | inconclusive: 0.117 µM [inhibitor, full curve, poor fit]
32 | COc1cc(C(=O)NCCN2C(=O)S/C(=C\c3ccc(F)cc3)C2=O)ccc1OCC(=O)N1CCOCC1 | inactive
33 | N#C/C(=C/c1ccc(N2CCCCC2)o1)C(=O)Nc1ccc2ccccc2c1 | inconclusive: 11.7 µM [inhibitor, partial curve]
34 | Cc1ccc(-c2csc(NC(=S)NC(=O)c3ccco3)n2)cc1 | inconclusive: 2.62 µM [inhibitor, partial curve]
35 | CCCCCCNC(=O)CSc1nccn1Cc1ccccc1 | inconclusive: 0.0586 µM [inhibitor, full curve, poor fit]
36 | Cc1cc(/C=C2/C(=N)N3C(=NC2=O)SN=C3S(C)(=O)=O)c(C)n1-c1ccccc1F | inconclusive: 18.5 µM [inhibitor, single point]
37 | Cn1c(SCc2ccc(F)cc2)nnc1-c1ccncc1 | inconclusive: 18.5 µM [inhibitor, partial curve, poor fit]
38 | O=Cc1cn(CC(=O)Nc2ccccc2)c2ccccc12 | inconclusive: 14.7 µM [inhibitor, single point]
39 | Cc1cc(C)cc(N=C2SC(CC(=O)Nc3ccccc3)C(=O)N2CCN2CCOCC2)c1 (stereo unspecified) | inconclusive: 10.4 µM [inhibitor, single point]
40 | CCOC(=O)c1sc2ncn(CC(=O)N(CC)CC)c(=O)c2c1C | inconclusive: 7.38 µM [inhibitor, partial curve]
41 | Cc1ccc(CNC(=O)C(=O)Nc2nccs2)cc1 | inactive
42 | Cc1ccc(OC(=O)c2cccc(S(=O)(=O)N3CCCC3)c2)c(-n2nc3ccccc3n2)c1 | inactive
43 | COc1ccc(OCc2cccc(C(=O)O)c2)cc1 | inconclusive: 5.22 µM [inhibitor, partial curve, poor fit]
44 | COc1ccc(/C=C/C(=O)NC(=S)Nc2ccc(N3CCN(C(C)=O)CC3)cc2)cc1 | inconclusive: 18.5 µM [inhibitor, single point]
45 | Cc1cc(NC(=O)CSc2nc(C(C)C)nc3ccccc23)no1 | inconclusive: 9.28 µM [inhibitor, single point]
46 | CC(CCN1CCN(c2ccccc2)CC1)c1ccccc1 (stereo unspecified) | inconclusive: 13.1 µM [inhibitor, single point]
47 | Cc1ccc(/C=N/NC(=O)Nc2ccccc2)o1 | inconclusive: 13.1 µM [inhibitor, partial curve, poor fit]
48 | COc1ccccc1NC(=O)C(=O)NCC1COc2ccccc2O1 (stereo unspecified) | inactive

Row | SMILES | Potency
49 | COc1ccc(C2c3[nH]c4ccccc4c3CCN2Cc2ccoc2)c(F)c1 (stereo unspecified) | inconclusive: 18.5 µM [inhibitor, single point]
50 | CCOc1cc(/C=C2\SC(=NC)N(C)C2=O)c(Br)cc1OC(C)=O | inconclusive: 11.7 µM [inhibitor, single point]
51 | CC(C)(O)C#Cc1ncc(C(F)(F)F)cc1Cl | inconclusive: 14.7 µM [inhibitor, single point]
52 | CCN(CC)S(=O)(=O)c1ccc(C(=O)NNC(=O)c2cccs2)cc1 | active: 0.147 µM
53 | CCn1c(CNC(=O)COc2ccc(C(C)C)cc2)nnc1SCC(=O)Nc1cc(F)ccc1C | inconclusive: 14.7 µM [inhibitor, partial curve, poor fit]
54 | CCCn1c(SCC(=O)NNC(=O)c2ccc(C)cc2)nnc1C(C)C | inactive
55 | COc1cc(C)nc(NS(=O)(=O)c2ccc(C)cc2)n1 | inconclusive: 18.5 µM [inhibitor, single point]
56 | Nc1cc(N)nc(SCC(=O)N2CCc3ccccc32)n1 | inconclusive: 6.57 µM [inhibitor, single point]
57 | CSCCC(NS(=O)(=O)c1cccc(C(F)(F)F)c1)C(=O)N(C)CCOc1ccc(Cl)cc1 (stereo unspecified) | inconclusive: 11.7 µM [inhibitor, partial curve, poor fit]
58 | Cc1cc(C)c2nc(N3CCC(C(=O)NCc4cccnc4)CC3)sc2c1 | inactive
59 | O=C(NC1CCCCCC1)C1CCN(C(=O)c2cccc(Cl)c2)CC1 | inactive
60 | COc1c(C=C2C(=O)NC(=O)NC2=O)c(CCN(C)C(=O)c2ccccc2)cc2c1OCO2 | inconclusive: 0.0026 µM [inhibitor, full curve, poor fit]
61 | O=S(=O)(Oc1ccc(C(=S)N2CCOCC2)cc1)c1ccc(Cl)cc1 | inconclusive: 2.62 µM [inhibitor, partial curve, poor fit]
62 | CCN(CC)S(=O)(=O)c1ccc(Cl)c(C(=O)Nc2cc(C)nn2-c2ccccc2C(F)(F)F)c1 | inconclusive: 9.28 µM [inhibitor, partial curve]
63 | COC(=O)c1ccc(N2CCc3ccccc32)c([N+](=O)[O-])c1 | inactive
64 | OC(CN1CCC(Cc2ccccc2)CC1)c1ccccc1 (stereo unspecified) | inconclusive: 9.28 µM [inhibitor, partial curve, poor fit]
65 | CNC(=O)c1[nH]cnc1C(=O)NCC(=O)OCc1ccccc1 | inactive
66 | O=C(NCCCN1CCCC1=O)C1CCN(S(=O)(=O)c2ccc(Cl)cc2)CC1 | inconclusive: 11.7 µM [inhibitor, single point]
67 | Cc1ccc(S(=O)(=O)N2CCN(C(=O)c3cccc(-n4cccc4)c3)CC2)cc1 | inconclusive: 11.7 µM [inhibitor, partial curve, poor fit]
68 | CCOC(=O)c1c(O)cc(C)[nH]c1=O | inactive
69 | Cc1ccccc1N1C(=O)c2cccc3c(N(C)CCO)ccc(c23)C1=O | inconclusive: 10.4 µM [inhibitor, single point]
70 | CNC(=O)CSc1nnc(-c2cnccn2)n1C | inactive
71 | CCc1ccc(NC(=O)Nc2ccncc2)cc1 | inconclusive: 18.5 µM [inhibitor, single point]

3 entries already listed, sorted by count of non-hydrogen atoms, largest number first:
Row | SMILES | Potency
53 | CCn1c(CNC(=O)COc2ccc(C(C)C)cc2)nnc1SCC(=O)Nc1cc(F)ccc1C | inconclusive: 14.7 µM [inhibitor, partial curve, poor fit]
69 | Cc1ccccc1N1C(=O)c2cccc3c(N(C)CCO)ccc(c23)C1=O | inconclusive: 10.4 µM [inhibitor, single point]
54 | CCCn1c(SCC(=O)NNC(=O)c2ccc(C)cc2)nnc1C(C)C | inactive
